Assay results taken from patent US20020143059A1, “Skin care product containing retinoids, retinoid booster and phytoestrogens in a dual compartment package” (priority 2000, published 2002).

System: retinoic acid oxidation (cytochrome P450 systems)
Experiment: Assay for NADPH Dependent Retinoic Acid Oxidation, liver microsomes
Type: biochemical, rat
Settings: 100 μM compound
Protocol: 2.2 Isolation of rat liver microsomes (modified from R. Martini & M. Murray, “Participation of P450 3A Enzymes in Rat Hepatic Microsomal Renitoic Acid 4-Hydroxylation”, Archives Biochem. Biophys. 303, 57-66 (1993)).
The resulting homogenate was successively centrifuged for 30 min. at 10,000 g, 30 min. at 20,000 g, and 15 min. at 30,000 g, and the resulting supernatant was ultracentrifuged for 80 min. at 105,000 g. […] Protein concentrations were determined as described above.
303, 57-66 (1993). […] On the day of the assay, prepare a 60 mM NADPH solution in buffer.
Quench with acidified ethanol/BHT and extract with hexane/BHT as described above.
Aliquots of 60 μL were injected immediately and analyzed for retinoid content.
The chromatography instrumentation consisted of a Waters 600 gradient controller/pump, a Waters 996 Photodiode Array detector and a Waters 474 Scanning Fluorescence detector. Two HPLC protocols were used for retinoid analysis. […] The eluate was monitored for absorbance at 325 nm and fluorescence at 325 ex/480 em. […] 189, 136-145 (1990). This system consisted of a 20 min. linear gradient from 68:32 (v/v) methanol/ water containing 10 mM ammonium acetate to 4:1 (v/v) methanol:dichloromethane followed by a 5 min. hold at a flow rate of 1 mL/min.

Compound: Clc1ccccc1C(c1ccccc1)(c1ccccc1)n1ccnc1 [Clotrimazole]
- % Inhibition Retinoic Acid (100 μM): 85%
